We go through two substances from publication doi:10.1101/2020.11.30.404178.

The chains behind the UniProt entries cited, without tags or fusion partners. Where a name states a change or a piece, a line headed by the entry shows the natural chain unless it says otherwise. A line that says so, or that is headed by a name, gives the form on record, which may keep a tag or linker. Residues count along the entry.
UniProt P35869: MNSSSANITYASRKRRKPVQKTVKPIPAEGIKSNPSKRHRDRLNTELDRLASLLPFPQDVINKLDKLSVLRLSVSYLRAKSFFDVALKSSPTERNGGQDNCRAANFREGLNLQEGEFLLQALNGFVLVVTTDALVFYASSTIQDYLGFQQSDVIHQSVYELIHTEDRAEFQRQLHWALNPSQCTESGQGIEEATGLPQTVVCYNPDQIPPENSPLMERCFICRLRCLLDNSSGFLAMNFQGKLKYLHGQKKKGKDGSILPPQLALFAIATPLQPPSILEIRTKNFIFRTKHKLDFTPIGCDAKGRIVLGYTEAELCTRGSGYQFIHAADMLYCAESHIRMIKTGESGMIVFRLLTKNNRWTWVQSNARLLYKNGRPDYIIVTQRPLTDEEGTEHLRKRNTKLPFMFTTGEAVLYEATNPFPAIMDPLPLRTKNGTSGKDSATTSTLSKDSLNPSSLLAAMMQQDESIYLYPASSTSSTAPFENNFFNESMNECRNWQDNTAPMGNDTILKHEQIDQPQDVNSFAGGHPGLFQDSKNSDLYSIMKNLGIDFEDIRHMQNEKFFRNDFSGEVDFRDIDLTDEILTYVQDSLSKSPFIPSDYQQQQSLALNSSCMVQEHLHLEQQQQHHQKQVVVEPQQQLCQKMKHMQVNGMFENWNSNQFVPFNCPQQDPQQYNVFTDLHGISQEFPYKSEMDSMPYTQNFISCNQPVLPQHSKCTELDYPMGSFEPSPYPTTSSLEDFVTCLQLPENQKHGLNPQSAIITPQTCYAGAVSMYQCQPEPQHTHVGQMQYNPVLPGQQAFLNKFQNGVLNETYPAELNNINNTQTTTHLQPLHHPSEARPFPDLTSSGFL
aryl hydrocarbon receptor (AhR) (human (endogenous in LS180)): residues 11-848 of P35869
6×His-tagged human AhR fragment, residues 23–273: residues 23-273 of P35869
UniProt P27540: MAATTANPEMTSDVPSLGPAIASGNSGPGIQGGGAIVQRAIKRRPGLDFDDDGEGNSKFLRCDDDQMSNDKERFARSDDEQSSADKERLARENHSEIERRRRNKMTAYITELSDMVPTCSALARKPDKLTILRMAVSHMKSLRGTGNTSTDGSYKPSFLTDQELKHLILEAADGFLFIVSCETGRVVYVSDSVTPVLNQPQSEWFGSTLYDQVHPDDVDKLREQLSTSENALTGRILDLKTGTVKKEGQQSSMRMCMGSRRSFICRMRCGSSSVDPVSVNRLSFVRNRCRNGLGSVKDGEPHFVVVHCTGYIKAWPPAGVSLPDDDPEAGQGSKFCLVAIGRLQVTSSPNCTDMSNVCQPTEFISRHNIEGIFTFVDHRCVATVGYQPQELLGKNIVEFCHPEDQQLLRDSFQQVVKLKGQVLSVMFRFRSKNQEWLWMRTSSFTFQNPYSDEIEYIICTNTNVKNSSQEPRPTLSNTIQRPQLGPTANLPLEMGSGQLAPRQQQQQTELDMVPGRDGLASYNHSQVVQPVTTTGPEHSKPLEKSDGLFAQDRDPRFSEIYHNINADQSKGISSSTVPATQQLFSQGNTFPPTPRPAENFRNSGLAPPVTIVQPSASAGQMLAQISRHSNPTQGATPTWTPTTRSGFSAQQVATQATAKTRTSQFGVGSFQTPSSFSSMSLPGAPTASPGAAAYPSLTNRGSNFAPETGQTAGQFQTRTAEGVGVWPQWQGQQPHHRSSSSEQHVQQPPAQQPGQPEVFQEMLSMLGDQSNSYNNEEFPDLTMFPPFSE

Assay [1] has as its target 6×His-tagged human AhR fragment, residues 23–273 (human) (UniProt P35869). The assay can be described thus: pull-down.
The target of assay [2] is aryl hydrocarbon receptor (AhR) (human (endogenous in LS180)) (UniProt P35869). The assay can be described thus: co-IP.

These are yes or no findings as the source states them, for the method shown. In cells and extracts the contact can be indirect. Some entries that bind do so weakly or less than the wild type.

Take “FLAG-tagged mouse ARNT fragment, residues 85–345 (from UniProt P53762 85-345) (domain or fragment)”: the binding entry in assay [1] is reported as “binds”.

Regarding “AhR nuclear translocator (ARNT) (from UniProt P27540 1-789)”, the binding entry in assay [2] is recorded as “binds”.
